Laboratory results taken from PubChem BioAssay AID2685 (National Center for Advancing Translational Sciences (NCATS), 2010).
Among all 320,000 compounds or so, about 2,100 (0.66%) were called active. Inconclusive results, whose numbers are uncertain, are shown with a selection of clear calls. Calls follow the shape of the dose curve; as a rule, active = well fitted inhibition curve with a large enough effect in the signal ratio, with a control signal flat (not every such curve was filed as active); inconclusive = small, poorly fitted or top-dose-only effect, or effect the other way, or a change in a side signal; inactive = flat fitted curve, though single readings scatter; the % refers to the signal ratio. Where the call is inconclusive, the potency comes from a doubtful curve fit.

Test: qHTS Assay for Lipid Storage Modulators in Drosophila S3 Cells
Details: BODIPY lipid droplet fluorescence, 18-24 h, cells fed with added oleic acid; lipid storage change, negative = inhibition: at 46.1 µM (top of the series) unless noted
How it was run: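 Laser-scanning cytometry quantifies lipid droplet accumulation (500–530 nm total intensity; droplet/cell object ratio) in oleic acid-fed (400 uM added) Drosophila S3 cells treated with a concentration series. 20 uM Triacsin C defined 100% inhibition.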
% is scaled to controls: 0 for no effect and ±100 for the full control effect; potency is read from the fitted curve at half-maximal effect.

SMILES	lipid storage change, negative = inhibition	Potency	outcome
Cc1ccc(S(=O)(=O)N2CCCC(C(=O)NCC(C)C)C2)cc1 (stereo not given)	inconclusive: 24.6%	–	–
COC(=O)c1cc(NC(=S)N2CCN(c3ccccn3)CC2)cc(C(=O)OC)c1	inconclusive: -24.6%	–	–
CN(C)S(=O)(=O)c1ccc(NC(=O)c2cc(-c3cccs3)nc3ccccc23)cc1	inconclusive: 23%	–	–
CN(C)S(=O)(=O)n1cc(/C=C(\NC(=O)c2ccccc2Cl)C(=O)NCCCN2CCOCC2)c2ccccc21	inconclusive: 97.3%	–	–
COc1ccc(NC(=O)CCC(=O)Nc2cc(OC)c(NC(=O)c3cccs3)cc2OC)cc1	inconclusive: 37.5%	–	–
CCOC(=O)c1cc(S(=O)(=O)NC2CCN(C(=O)OCC)CC2)cn1C	inconclusive: 18.5%	–	–
Cc1ccc(S(=O)(=O)c2nc(S(C)(=O)=O)sc2N2CCC3(CC2)OCCO3)cc1	inconclusive: -27.9%	–	–
O=C(CN1C(=O)c2ccccc2S1(=O)=O)N1CCc2ccccc21	inconclusive: 20.6%	–	–
CCCCn1c(N)c(N(Cc2ccccc2OC)C(=O)CCSC)c(=O)[nH]c1=O	–	inconclusive: 4.11 µM [activator, full curve, poor fit]	–
Cc1cccc(NC(=S)N2N=CCC2c2ccccc2)c1 (stereo not given)	inconclusive: -4.81%	–	–
CCOC(=O)C1CCCN(C(=O)c2ccc(CNc3c(N4CCC(C)CC4)c(=O)c3=O)cc2)C1 (stereo not given)	inconclusive: 6.23%	–	–
COc1cccc(-c2nc3ccc(O)cc3c(=O)o2)c1	inconclusive: -3.29%	–	–
O=C(CN1C(=O)c2cccnc2Oc2ccc(Cl)cc21)Nc1ccccc1F	inactive: -6.56%	–	–
Cc1cc(C)c2c(n1)SCC(=O)N2CC(=O)Nc1ccc(C)c(C)c1	–	inconclusive: 6.51 µM [activator, partial curve, poor fit]	–
CCN1C(=O)N(C)C2(c3ccccc3)N(C)C(=O)N(C)C12c1ccccc1 (stereo not given)	inconclusive: -7.49%	–	–
CCOC(=O)N1CCN(c2nc(-c3cccs3)nc3ccccc23)CC1	inconclusive: -57.7%	–	–
CC(=O)Nc1ccc(NC(=O)c2cccc(-c3cc4ccccc4oc3=O)c2)cc1	inconclusive: -29.2%	–	–
COc1cc(C(=O)N[C@@H](C)C(=O)N2CCC3(CC2)NCCc2[nH]cnc23)cc(OC)c1OC	inconclusive: 11.2%	–	–
COc1ccc(C(=O)Oc2ccc(=O)n(-c3ccccc3)n2)cc1	–	inconclusive: 0.92 µM [activator, full curve, poor fit]	–
O=C(CNC(=O)c1ccccc1)OCCCOC(=O)CNC(=O)c1ccccc1	inconclusive: -6.66%	–	–
COc1ccc(S(=O)(=O)NCC(=O)N(CC2CCCO2)C(C(=O)NC2CCCC2)C(C)C)cc1 (stereo not given)	inconclusive: -1.41%	–	–
CCOc1ccc(NC(=O)NC2CCS(=O)(=O)C2)cc1 (stereo not given)	inconclusive: 144%	–	–
NC(=O)CN1CCN(c2ccccc2F)CC1	–	inconclusive: 16.4 µM [falling, partial curve]	–
COc1cccc(-c2csc(NC(=O)Nc3ccccc3)n2)c1	inconclusive: -24.2%	–	–
Cc1cc(=S)cc(C)n1CCCO	inactive: 0.297%	–	–

Filtered by structure: the compounds so far containing a halogen
SMILES	lipid storage change, negative = inhibition	Potency	outcome
CN(C)S(=O)(=O)n1cc(/C=C(\NC(=O)c2ccccc2Cl)C(=O)NCCCN2CCOCC2)c2ccccc21	inconclusive: 97.3%	–	–
O=C(CN1C(=O)c2cccnc2Oc2ccc(Cl)cc21)Nc1ccccc1F	inactive: -6.56%	–	–
NC(=O)CN1CCN(c2ccccc2F)CC1	–	inconclusive: 16.4 µM [falling, partial curve]	–

More results.

SMILES	lipid storage change, negative = inhibition	Potency	outcome
COc1ccc2[nH]c(=O)c(CN(CC3CCCO3)C(=O)Nc3ccc(F)cc3)cc2c1 (stereo not given)	–	inconclusive: 2.91 µM [rising, partial curve]	–
CCN1CCc2c(OCC(=O)Nc3ccc(C)cc3)cccc2C1=O	inconclusive: -12.7%	–	–
CCC(Cc1ccccc1)NC(=O)CN(C)S(=O)(=O)c1ccc2c(c1)c(=O)n(C)c(=O)n2C (stereo not given)	–	inconclusive: 0.13 µM [falling, full curve, poor fit]	–
O=C(O)c1ccc(/C=N/Nc2ncc(Cl)cc2Cl)cc1	inconclusive: 40.9%	–	–
CCN(C1=NS(=O)(=O)c2ccccc21)N(CC)S(=O)(=O)c1ccc(C)cc1	–	inconclusive: 6.51 µM [cytotoxic, single point]	–
CCOC(=O)[C@H]1[C@H]2COc3cc(OC)ccc3[C@@H]2N2C(=O)N(c3cccc(Cl)c3)C(=O)[C@@]12C	inconclusive: 31.5%	–	–
CNC(=O)COC(=O)[C@@H](Nc1ccc(S(=O)(=O)N2CCOCC2)cc1[N+](=O)[O-])C(C)C	–	inconclusive: 7.31 µM [activator, partial curve]	–
Cc1occc1-c1nnc(SCC(=O)NCc2ccc3c(c2)OCO3)n1CC(C)C	inconclusive: 25.7%	–	–
CC1CCCCN1S(=O)(=O)c1ccc(C(=O)N(CCCN(C)C)c2nc3cc4c(cc3s2)OCO4)cc1 (stereo not given)	–	inconclusive: 0.731 µM [activator, partial curve, poor fit]	–
O=C(Nc1cccc(NC(=O)c2cncc(Br)c2)c1)c1cncc(Br)c1	–	inconclusive: 16.4 µM [falling, partial curve, poor fit]	–
Cc1ccn2c(=O)nc(SCC(=O)NCc3ccc(F)cc3)nc2c1	inconclusive	–	–
CC(NC(=S)NCCCN1CCOCC1)C1CC2CCC1C2 (stereo not given)	inconclusive: -29.9%	–	–
O=C(Nc1cc(S(=O)(=O)N2CCOCC2)ccc1O)c1ccc2c(c1)S(=O)(=O)c1ccccc1C2=O	inconclusive: 46.4%	–	–
COc1ccc(/C(N)=N/OC(=O)CCC2CCCC2)cc1	–	inconclusive: 0.103 µM [falling, full curve, poor fit]	–
COc1cc(SC)ccc1C(=O)N1CCN(c2ccccc2OC)CC1	–	inconclusive: 0.164 µM [falling, full curve, poor fit]	–
CCOC(=O)c1ccc(S(=O)(=O)Nc2ccccc2-c2nnn(CC)n2)cc1	inconclusive: 6.22%	–	–
Cc1ccc2c(c1)nnn2C1CCN(CC(=O)N(c2ccccc2)c2ccccc2)CC1	inconclusive: 34.7%	–	–
CN(CC(=O)Nc1cccc(F)c1)C(=O)C1CCN(S(=O)(=O)c2ccc3c(c2)OCCO3)CC1	inconclusive: 3.65%	–	–
CCOC(=O)C1=C(COC(=O)CCc2ccccc2)NC(=O)NC1C (stereo not given)	inconclusive: 7.78%	–	–
CCOC(=O)c1c(-c2cccc([N+](=O)[O-])c2)csc1NC(=O)CCCOc1ccccc1OC	inconclusive: -18.1%	–	–
COC(=O)CCC/C=C1\SC[C@@H](NC(=O)c2ccccc2)C1NC(C)=O (stereo not given in full)	inconclusive: 19.2%	–	–
Cc1cc(C)cc(NC(=S)N2CCN(C(=O)c3ccco3)CC2)c1	inconclusive: -5.26%	–	–
O=C(Cn1cnc(S(=O)(=O)N2CCCC2)c1)Nc1cccc(F)c1	–	inconclusive: 29.1 µM [falling, single point]	–
Cc1cc(C)c(C#N)c(SCC2COc3ccccc3O2)n1 (stereo not given)	inconclusive: 25.2%	–	–
c1ccc(CCNc2nnnn2-c2ccccc2)cc1	inconclusive: 3.63%	–	–

In another format: results already given.

| SMILES | lipid storage change, negative = inhibition | Potency | outcome |
| --- | --- | --- | --- |
| O=C(Nc1cccc(NC(=O)c2cncc(Br)c2)c1)c1cncc(Br)c1 | – | inconclusive: 16.4 µM [falling, partial curve, poor fit] | – |
| Cc1ccn2c(=O)nc(SCC(=O)NCc3ccc(F)cc3)nc2c1 | inconclusive | – | – |
| CC(NC(=S)NCCCN1CCOCC1)C1CC2CCC1C2 (stereo not given) | inconclusive: -29.9% | – | – |

(cont.)

SMILES	lipid storage change, negative = inhibition	Potency	outcome
COc1ccc(NC(=O)CN(C)C(=O)c2ccc(-c3ccccc3Cl)o2)cc1	–	inconclusive: 1.84 µM [activator, partial curve, poor fit]	–
Cc1cc2nc(SCC(=O)Nc3ccccc3C(=O)O)[nH]c2cc1C	inconclusive: -4.01%	–	–
COc1cccc(C(C(=O)NCC2CCCO2)N(C(=O)Cn2nnc3ccccc32)c2ccc(NC(C)=O)cc2)c1OC (stereo not given)	inconclusive: 106%	–	–
Cc1c(C(=O)Nc2ccc3oc(-c4cccnc4)nc3c2)oc2ccccc12	inconclusive: -9.15%	–	–
O=C(Nc1ccc(N2CCN(C(=O)c3ccccc3)CC2)cc1)c1cccnc1	–	inconclusive: 29.1 µM [falling, single point]	–
CN(C)c1oc(/C=C/c2ccccc2)nc1C#N	inconclusive: 21.8%	–	–
Cc1cn2c(=O)c(C(=O)N3CCN(c4ccccc4)CC3)cnc2s1	inconclusive: -22.7% [at 0.0737 µM]	–	–
O=C(Nc1ncccc1Cl)c1ccc2c(c1)OCCO2	inconclusive: 4.7%	–	–
COc1ccc(S(=O)(=O)N2CCN(CC(=O)Nc3cc(Cl)ccc3Cl)CC2)cc1	inconclusive: 22.8%	–	–
CN1CCN(C(=O)c2ccc(CSc3ccc(Cl)cc3)cc2)CC1	inconclusive: -16.7%	–	–
COc1ccc(NC(=O)Cn2cnc3c(nnn3-c3ccc(C)cc3)c2=O)cc1	inactive: -12.6% [at 9.22 µM]	–	–
O=[N+]([O-])c1ccc(Cl)c(S(=O)(=O)NC2=NCCC2)c1	inconclusive	–	–
Cc1ncoc1C(=O)N1CCCC(C(=O)c2ccc(-c3ccccc3)c(F)c2)C1 (stereo not given)	–	inconclusive: 23.1 µM [falling, single point]	–
O=C(COC(=O)c1ccc([N+](=O)[O-])o1)Nc1cccc(S(=O)(=O)N2CCCCC2)c1	inconclusive: -16.7%	–	–
CS(=O)(=O)N(CC(=O)Nc1ccc(F)cc1F)C1CCCCC1	inconclusive: 22.5%	–	–
CCOc1ccc(-n2nnc3c(=O)n(CC(=O)c4ccccc4)cnc32)cc1	inconclusive: 27.7%	–	–
COC(=O)c1ccccc1S(=O)(=O)C(C)(C)C	inconclusive: 1.29%	–	–
O=c1c2ccccc2nnn1CSc1nnc(Nc2ccccc2)s1	inconclusive: 17.8%	–	–
c1ccc(C(Cc2nc(-c3cccnc3)no2)c2ccccc2)cc1	–	inconclusive: 2.59 µM [activator, single point]	–
CC(=O)c1ccc(OCc2cc(C(=O)N(C)Cc3cc(C)no3)no2)cc1	–	–	inactive [at 46.1 µM]
N#Cc1ccc(NC(=O)COC(=O)CCNS(=O)(=O)c2ccccc2)cc1	–	inconclusive: 4.61 µM [falling, full curve, poor fit]	–
COc1ccccc1NC(=O)C(C)Sc1nnnn1C (stereo not given)	inconclusive: 52.9%	–	–
COc1cccc(NC(=O)COC(=O)CCCC2=NS(=O)(=O)c3ccccc3N2)c1	inconclusive: 18.6%	–	–
O=C(NCC1(c2ccccc2)CCCC1)c1ccco1	inconclusive: 11.3%	–	–
FC(F)(F)c1ccc(Cl)c(NC(=S)N/N=C/c2ccccc2C(F)(F)F)c1	–	inconclusive: 6.51 µM [activator, partial curve]	–
